Test results as given in article PMC9070665.
These are yes or no findings as the source states them, for the method shown. In cells and extracts the contact can be indirect. Some binding calls cover weakened binding; strength is not graded here. Sequences can lack the tags named with a protein.

Amino acid sequences for entries named in this document (tags omitted).
UniProt Q96S21: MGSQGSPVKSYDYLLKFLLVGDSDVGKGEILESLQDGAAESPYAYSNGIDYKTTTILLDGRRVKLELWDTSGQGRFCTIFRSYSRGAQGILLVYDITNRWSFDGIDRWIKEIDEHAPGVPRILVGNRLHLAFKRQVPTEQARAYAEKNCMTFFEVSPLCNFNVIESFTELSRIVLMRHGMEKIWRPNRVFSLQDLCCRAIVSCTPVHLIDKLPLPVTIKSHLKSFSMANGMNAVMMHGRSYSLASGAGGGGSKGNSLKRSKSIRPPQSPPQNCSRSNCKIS

How the values were obtained:
FLAG-ANKRD28 (human) = target: T1, FLAG-ANKRD28 (human) (UniProt O15084); test: co-IP; 293T cells co-transfected with HA-Rab40c and one FLAG-tagged PP6 component or PP6R1 deletion mutant; anti-FLAG IP, anti-HA blot
T1 sequence: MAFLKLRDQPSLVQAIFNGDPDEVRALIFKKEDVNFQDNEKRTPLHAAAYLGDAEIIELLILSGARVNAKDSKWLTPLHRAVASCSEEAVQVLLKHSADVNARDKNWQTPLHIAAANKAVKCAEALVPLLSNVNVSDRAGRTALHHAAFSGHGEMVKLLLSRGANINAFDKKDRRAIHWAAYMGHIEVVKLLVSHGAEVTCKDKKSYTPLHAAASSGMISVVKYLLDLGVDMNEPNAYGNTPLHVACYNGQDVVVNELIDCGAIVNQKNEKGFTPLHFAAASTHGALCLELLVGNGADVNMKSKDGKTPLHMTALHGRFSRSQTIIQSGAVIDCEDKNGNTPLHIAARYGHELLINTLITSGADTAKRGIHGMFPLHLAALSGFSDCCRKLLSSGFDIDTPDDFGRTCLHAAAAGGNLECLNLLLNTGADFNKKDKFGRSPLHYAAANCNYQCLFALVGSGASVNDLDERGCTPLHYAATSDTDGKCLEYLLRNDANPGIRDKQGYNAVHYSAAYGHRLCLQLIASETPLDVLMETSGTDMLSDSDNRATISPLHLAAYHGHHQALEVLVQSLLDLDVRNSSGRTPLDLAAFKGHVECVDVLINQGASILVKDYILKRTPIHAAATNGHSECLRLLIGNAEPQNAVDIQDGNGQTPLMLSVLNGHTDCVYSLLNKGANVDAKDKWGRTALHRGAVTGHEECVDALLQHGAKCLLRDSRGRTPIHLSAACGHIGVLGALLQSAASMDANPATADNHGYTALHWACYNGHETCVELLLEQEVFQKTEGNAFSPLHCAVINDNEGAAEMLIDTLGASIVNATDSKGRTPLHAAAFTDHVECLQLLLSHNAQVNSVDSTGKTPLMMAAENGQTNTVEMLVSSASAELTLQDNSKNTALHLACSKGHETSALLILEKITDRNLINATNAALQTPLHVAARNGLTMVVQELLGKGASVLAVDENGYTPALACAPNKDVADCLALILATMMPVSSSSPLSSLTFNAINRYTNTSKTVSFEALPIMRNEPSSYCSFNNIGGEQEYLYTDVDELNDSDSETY

FLAG-ANKRD52 (human) = target: T2, FLAG-ANKRD52 (human) (UniProt Q8NB46); test: as above
T2 sequence: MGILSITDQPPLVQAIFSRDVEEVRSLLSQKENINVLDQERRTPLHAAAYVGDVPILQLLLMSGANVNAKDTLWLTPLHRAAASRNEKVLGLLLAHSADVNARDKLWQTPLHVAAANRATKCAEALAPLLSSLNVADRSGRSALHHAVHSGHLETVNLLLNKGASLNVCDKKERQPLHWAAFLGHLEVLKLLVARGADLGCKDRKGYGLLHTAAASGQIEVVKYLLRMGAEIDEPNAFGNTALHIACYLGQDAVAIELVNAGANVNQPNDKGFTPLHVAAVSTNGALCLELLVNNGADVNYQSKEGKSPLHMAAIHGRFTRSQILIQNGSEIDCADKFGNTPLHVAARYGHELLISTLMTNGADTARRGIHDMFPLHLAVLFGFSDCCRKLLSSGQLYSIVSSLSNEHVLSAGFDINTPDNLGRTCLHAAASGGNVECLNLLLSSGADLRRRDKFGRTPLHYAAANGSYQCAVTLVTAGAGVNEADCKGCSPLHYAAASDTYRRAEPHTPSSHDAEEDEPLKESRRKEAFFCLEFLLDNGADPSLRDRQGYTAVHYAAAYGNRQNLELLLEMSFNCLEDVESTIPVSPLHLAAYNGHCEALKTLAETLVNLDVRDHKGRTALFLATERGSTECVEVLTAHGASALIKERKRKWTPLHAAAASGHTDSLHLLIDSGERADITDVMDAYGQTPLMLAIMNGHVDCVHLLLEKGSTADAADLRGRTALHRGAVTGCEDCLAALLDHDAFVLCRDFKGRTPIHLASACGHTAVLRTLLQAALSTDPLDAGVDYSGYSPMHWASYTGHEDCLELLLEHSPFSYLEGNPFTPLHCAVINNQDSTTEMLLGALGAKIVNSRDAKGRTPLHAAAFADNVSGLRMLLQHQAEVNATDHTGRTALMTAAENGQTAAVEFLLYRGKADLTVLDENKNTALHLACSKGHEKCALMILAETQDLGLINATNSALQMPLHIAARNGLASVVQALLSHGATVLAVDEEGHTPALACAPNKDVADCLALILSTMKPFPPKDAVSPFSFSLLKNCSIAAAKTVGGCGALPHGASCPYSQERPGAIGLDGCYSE

## HA-Rab40c (from UniProt Q96S21 1-281)
FLAG-ANKRD28 (human)
  binding: binds
FLAG-ANKRD52 (human)
  binding: binds
